Experimental data: the supplement of paper PMC7666118
This is one part of the list.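 How the source made its calls: active = dose-dependent thermal stabilisation significant by F-test of dose-response against flat model at 10% FDR; inactive = not significant.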

These molecules were tested against T1, STX2 (UniProt P32856) (assay: dose-dependent thermal stabilisation call (2D-TPP, DLPTP, 10% FDR) (binary (1 = stabilised)); higher = stabilised by the compound). Details: system: Jurkat gel-filtered lysate; concentration range 1-500 µM.
T1 sequence (whole entry): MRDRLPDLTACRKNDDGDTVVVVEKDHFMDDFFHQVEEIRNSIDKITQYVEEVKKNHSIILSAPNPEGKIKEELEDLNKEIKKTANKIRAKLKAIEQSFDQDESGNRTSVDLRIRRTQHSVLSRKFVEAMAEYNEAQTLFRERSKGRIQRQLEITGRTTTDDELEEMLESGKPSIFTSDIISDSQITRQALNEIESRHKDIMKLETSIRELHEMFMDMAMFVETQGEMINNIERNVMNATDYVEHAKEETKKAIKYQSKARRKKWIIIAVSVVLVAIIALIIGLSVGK
Procedure: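 2D thermal proteome profiling in gel-filtered Jurkat E6.1 lysate (2 mg/ml) treated with NaGTP (0, 1, 10, 100, 500 uM) for 10 min at room temperature, then heated 3 min at one of 12 temperatures (42-63.9 C). Soluble protein was quantified by TMT10 MS. The value is the DLPTP call of the paper: dose-dependent thermal stabilisation over all temperatures at 10% FDR (F-test of a dose-response against a flat model); one experiment, one call per tested protein.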

Row | Structure (SMILES) | dose-dependent thermal stabilisation call
1 | Nc1nc2c(ncn2[C@@H]2O[C@H](COP(=O)(O)OP(=O)(O)OP(=O)(O)O)[C@@H](O)[C@H]2O)c(=O)[nH]1 | inactive: 0
